From patent US20230270674A1
No constants are given. Whether binding was seen depends on the method and setting. Some binding calls cover weakened binding; strength is not graded here. Tags and fused reporters may be left off the sequences shown.

Key:
mouse SIRPα (mouse) [1] = molecular target: T1, mouse SIRPα (mouse) (UniProt P97797); assay: Octet, exosomes on mouse SIRPα (legend of FIG. 12)
T1 sequence (looked up): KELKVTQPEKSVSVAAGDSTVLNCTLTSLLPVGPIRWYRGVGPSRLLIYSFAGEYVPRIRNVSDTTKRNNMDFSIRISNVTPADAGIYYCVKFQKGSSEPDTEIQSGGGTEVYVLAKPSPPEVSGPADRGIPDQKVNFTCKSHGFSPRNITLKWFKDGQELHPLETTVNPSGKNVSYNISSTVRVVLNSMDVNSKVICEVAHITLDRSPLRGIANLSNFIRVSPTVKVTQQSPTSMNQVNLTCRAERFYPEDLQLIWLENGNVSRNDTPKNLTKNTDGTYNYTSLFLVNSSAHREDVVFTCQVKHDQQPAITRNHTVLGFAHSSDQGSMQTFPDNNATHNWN

mouse SIRPα (mouse) [2] = molecular target: T1, mouse SIRPα (mouse); assay: Octet, exosomes on mouse SIRPα (legend of FIG. 18)
mouse SIRPα (mouse) [3] = molecular target: T1, mouse SIRPα (mouse); assay: Octet, exosomes on mouse SIRPα

Measured: binding

B1: construct 1922: extracellular domain of murine CD47 (C15S) fused to full length Scaffold X (no flag tag), expressed on exosomes (protein)
chain: QLLFSNVNSIEFTSSNETVVIPCIVRNVEAQSTEEMFVKWKLNKSYIFIYDGNKNSTTTDQNFTSAKISVSDLINGIASLKMDKRDAMVGNYTCEVTELSREGKTVIELKNRTVSWFSPNEKVPTATLVRVVGTELVIPCNVSDYDGPSEQNFDWSFSSLGSSFVELASTWEVGFPAQLYQERLQRGEILLRRTANDAVELHIKNVQPSDQGHYKCSTPSTDATVQGNYEDTVQVKVLADSLHVGPSARPPPSLSLREGEPFELRCTAASASPLHTHLALLWEVHRGPARRSVLALTHEGRFHPGLGYEQRYHSGDVRLDTVGSDAYRLSVSRALSADQGSYRCIVSEWIAEQGNWQEIQEKAVEVATVVIQPSVLRAAVPKNVSVAEGKELDLTCNITTDRADDVRPEVTWSFSRMPDSTLPGSRVLARLDRDSLVHSSPHVALSHVDARSYHLLVRDVSKENSGYYYCHVSLWAPGHNRSWHKVAEAVSSPAGVGVTWLEPDYQVYLNASKVPGFADDPTELACRVVDTKSGEANVRFTVSWYYRMNRRSDNVVTSELLAVMDGDWTLKYGERSKQRAQDGDFIFSKEHTDTFNFRIQRTTEEDRGNYYCVVSAWTKQRNNSWVKSKDVFSKPVNIFWALEDSVLVVKARQPKPFFAAGNTFEMTCKVSSKNIKSPRYSVLIMAEKPVGDLSSPNETKYIISLDQDSVVKLENWTDASRVDGVVLEKVQEDEFRYRMYQTQVSDAGLYRCMVTAWSPVRGSLWREAATSLSNPIEIDFQTSGPIFNASVHSDTPSVIRGDLIKLFCIITVEGAALDPDDMAFDVSWFAVHSFGLDKAPVLLSSLDRKGIVTTSRRDWKSDLSLERVSVLEFLLQVHGSEDQDFGNYYCSVTPWVKSPTGSWQKEAEIHSKPVFITVKMDVLNAFKYPLLIGVGLSTVIGLLSCLIGYCSSHWCCKKEVQETRRERRRLMSMEMD
binds: mouse SIRPα (mouse) [1] | mouse SIRPα (mouse) [2] | mouse SIRPα (mouse) [3]

B2: construct 1923: extracellular domain of murine CD47 (C15S) fused to flag-tagged full length Scaffold X, expressed on exosomes (protein, not shown: small tags and cut ends)
chain: QLLFSNVNSIEFTSSNETVVIPCIVRNVEAQSTEEMFVKWKLNKSYIFIYDGNKNSTTTDQNFTSAKISVSDLINGIASLKMDKRDAMVGNYTCEVTELSREGKTVIELKNRTVSWFSPNEKVPTATLVRVVGTELVIPCNVSDYDGPSEQNFDWSFSSLGSSFVELASTWEVGFPAQLYQERLQRGEILLRRTANDAVELHIKNVQPSDQGHYKCSTPSTDATVQGNYEDTVQVKVLADSLHVGPSARPPPSLSLREGEPFELRCTAASASPLHTHLALLWEVHRGPARRSVLALTHEGRFHPGLGYEQRYHSGDVRLDTVGSDAYRLSVSRALSADQGSYRCIVSEWIAEQGNWQEIQEKAVEVATVVIQPSVLRAAVPKNVSVAEGKELDLTCNITTDRADDVRPEVTWSFSRMPDSTLPGSRVLARLDRDSLVHSSPHVALSHVDARSYHLLVRDVSKENSGYYYCHVSLWAPGHNRSWHKVAEAVSSPAGVGVTWLEPDYQVYLNASKVPGFADDPTELACRVVDTKSGEANVRFTVSWYYRMNRRSDNVVTSELLAVMDGDWTLKYGERSKQRAQDGDFIFSKEHTDTFNFRIQRTTEEDRGNYYCVVSAWTKQRNNSWVKSKDVFSKPVNIFWALEDSVLVVKARQPKPFFAAGNTFEMTCKVSSKNIKSPRYSVLIMAEKPVGDLSSPNETKYIISLDQDSVVKLENWTDASRVDGVVLEKVQEDEFRYRMYQTQVSDAGLYRCMVTAWSPVRGSLWREAATSLSNPIEIDFQTSGPIFNASVHSDTPSVIRGDLIKLFCIITVEGAALDPDDMAFDVSWFAVHSFGLDKAPVLLSSLDRKGIVTTSRRDWKSDLSLERVSVLEFLLQVHGSEDQDFGNYYCSVTPWVKSPTGSWQKEAEIHSKPVFITVKMDVLNAFKYPLLIGVGLSTVIGLLSCLIGYCSSHWCCKKEVQETRRERRRLMSMEMD
binds: mouse SIRPα (mouse) [1] | mouse SIRPα (mouse) [2] | mouse SIRPα (mouse) [3]
